This is an account of results in the supplement of paper PMC12819154, “High-throughput peptide-centric local stability assay extends protein–ligand identification to membrane proteins, tissues and bacteria” (Nature Structural & Molecular Biology, 2025).

Sequences of proteins named here, by UniProt entry; tags and fusion partners are left off. A change or cut given only in a name is not applied to a line headed by its entry.
UniProt P09017: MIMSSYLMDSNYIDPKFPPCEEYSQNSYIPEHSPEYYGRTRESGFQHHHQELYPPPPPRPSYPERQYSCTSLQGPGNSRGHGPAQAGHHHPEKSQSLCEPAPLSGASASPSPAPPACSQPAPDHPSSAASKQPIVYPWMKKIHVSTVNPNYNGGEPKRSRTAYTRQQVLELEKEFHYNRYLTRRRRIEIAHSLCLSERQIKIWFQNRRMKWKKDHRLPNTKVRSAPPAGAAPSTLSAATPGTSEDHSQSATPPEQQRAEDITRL
UniProt P02008: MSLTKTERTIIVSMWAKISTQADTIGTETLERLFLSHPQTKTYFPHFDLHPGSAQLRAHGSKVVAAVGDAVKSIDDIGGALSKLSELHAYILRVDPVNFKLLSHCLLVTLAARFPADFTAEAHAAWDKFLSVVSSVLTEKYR
UniProt P07384: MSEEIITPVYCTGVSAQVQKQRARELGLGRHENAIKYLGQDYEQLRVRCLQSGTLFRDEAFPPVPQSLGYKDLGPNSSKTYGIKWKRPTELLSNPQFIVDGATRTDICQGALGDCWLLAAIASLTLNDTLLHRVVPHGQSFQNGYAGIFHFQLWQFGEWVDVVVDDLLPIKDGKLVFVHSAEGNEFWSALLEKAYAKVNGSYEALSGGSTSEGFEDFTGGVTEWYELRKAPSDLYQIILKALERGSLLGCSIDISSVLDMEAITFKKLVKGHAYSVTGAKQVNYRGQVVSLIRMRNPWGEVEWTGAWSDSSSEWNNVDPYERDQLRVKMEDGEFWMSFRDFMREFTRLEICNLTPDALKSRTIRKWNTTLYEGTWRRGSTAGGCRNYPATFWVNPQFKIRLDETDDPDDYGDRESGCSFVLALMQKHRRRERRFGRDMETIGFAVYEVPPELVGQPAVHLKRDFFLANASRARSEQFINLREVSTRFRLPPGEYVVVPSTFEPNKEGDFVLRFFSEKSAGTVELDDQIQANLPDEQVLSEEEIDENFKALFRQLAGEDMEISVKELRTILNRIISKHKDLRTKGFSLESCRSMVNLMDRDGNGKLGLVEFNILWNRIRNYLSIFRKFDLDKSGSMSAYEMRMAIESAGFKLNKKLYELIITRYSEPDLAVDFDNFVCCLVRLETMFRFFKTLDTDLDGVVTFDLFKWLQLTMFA
UniProt P13498: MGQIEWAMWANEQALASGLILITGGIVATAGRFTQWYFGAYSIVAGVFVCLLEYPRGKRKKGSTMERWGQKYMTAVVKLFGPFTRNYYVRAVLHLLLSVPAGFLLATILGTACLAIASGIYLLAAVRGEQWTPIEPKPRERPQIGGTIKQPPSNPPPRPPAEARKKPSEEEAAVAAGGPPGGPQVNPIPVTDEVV
UniProt P12081: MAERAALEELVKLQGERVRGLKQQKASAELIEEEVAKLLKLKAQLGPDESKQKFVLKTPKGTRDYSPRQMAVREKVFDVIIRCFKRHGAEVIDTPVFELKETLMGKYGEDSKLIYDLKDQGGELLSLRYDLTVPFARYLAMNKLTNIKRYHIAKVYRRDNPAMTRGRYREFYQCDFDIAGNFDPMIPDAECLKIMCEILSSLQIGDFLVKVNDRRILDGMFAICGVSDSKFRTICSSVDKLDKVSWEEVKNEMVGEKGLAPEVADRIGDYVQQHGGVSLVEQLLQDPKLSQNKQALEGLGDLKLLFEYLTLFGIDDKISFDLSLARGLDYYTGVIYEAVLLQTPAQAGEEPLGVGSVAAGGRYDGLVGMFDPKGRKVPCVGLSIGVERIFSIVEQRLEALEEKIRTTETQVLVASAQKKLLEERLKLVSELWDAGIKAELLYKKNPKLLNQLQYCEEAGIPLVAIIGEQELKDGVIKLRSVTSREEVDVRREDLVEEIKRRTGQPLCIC
UniProt P08123: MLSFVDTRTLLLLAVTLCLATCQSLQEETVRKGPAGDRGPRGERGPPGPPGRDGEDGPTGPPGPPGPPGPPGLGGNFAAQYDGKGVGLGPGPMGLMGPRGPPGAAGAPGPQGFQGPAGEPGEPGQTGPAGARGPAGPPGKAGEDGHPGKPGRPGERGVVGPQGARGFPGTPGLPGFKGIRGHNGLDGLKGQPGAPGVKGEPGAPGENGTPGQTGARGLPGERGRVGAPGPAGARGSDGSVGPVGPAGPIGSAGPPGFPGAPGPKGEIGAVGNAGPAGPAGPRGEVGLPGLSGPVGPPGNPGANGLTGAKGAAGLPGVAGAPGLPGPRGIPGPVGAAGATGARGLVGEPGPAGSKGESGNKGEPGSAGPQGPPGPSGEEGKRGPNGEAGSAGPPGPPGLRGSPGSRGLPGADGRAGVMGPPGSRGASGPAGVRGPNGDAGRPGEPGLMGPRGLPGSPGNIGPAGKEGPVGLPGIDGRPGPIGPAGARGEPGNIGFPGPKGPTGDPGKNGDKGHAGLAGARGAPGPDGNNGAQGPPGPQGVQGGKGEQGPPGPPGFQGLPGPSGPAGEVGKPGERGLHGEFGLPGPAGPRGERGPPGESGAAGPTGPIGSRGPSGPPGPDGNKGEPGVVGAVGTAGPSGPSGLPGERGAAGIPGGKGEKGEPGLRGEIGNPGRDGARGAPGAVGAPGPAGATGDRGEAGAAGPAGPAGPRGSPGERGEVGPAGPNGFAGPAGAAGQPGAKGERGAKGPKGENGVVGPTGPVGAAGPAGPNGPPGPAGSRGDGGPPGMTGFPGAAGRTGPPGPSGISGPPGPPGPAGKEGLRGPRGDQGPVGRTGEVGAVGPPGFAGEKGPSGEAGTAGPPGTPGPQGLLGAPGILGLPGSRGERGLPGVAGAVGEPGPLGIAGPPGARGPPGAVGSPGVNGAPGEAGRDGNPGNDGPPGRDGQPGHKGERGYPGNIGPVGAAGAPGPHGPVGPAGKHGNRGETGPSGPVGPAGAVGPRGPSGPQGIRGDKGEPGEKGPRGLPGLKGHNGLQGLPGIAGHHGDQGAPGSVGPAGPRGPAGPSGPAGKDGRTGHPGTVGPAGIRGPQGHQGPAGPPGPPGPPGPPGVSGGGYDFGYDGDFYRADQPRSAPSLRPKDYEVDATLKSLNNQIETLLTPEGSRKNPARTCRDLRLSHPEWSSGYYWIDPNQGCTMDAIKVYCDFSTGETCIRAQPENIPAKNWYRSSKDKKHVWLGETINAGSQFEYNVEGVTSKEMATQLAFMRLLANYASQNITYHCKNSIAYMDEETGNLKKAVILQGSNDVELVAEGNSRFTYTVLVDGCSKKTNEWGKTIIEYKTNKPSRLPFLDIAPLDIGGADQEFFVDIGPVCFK
UniProt P06753, whole entry: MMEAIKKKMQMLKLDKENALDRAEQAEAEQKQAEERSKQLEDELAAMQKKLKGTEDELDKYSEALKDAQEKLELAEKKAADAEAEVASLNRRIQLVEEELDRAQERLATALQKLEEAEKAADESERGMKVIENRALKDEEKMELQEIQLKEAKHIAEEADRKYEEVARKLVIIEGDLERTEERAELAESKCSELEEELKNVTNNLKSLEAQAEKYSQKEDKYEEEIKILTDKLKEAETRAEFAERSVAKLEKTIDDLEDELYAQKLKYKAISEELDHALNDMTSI
UniProt P07199: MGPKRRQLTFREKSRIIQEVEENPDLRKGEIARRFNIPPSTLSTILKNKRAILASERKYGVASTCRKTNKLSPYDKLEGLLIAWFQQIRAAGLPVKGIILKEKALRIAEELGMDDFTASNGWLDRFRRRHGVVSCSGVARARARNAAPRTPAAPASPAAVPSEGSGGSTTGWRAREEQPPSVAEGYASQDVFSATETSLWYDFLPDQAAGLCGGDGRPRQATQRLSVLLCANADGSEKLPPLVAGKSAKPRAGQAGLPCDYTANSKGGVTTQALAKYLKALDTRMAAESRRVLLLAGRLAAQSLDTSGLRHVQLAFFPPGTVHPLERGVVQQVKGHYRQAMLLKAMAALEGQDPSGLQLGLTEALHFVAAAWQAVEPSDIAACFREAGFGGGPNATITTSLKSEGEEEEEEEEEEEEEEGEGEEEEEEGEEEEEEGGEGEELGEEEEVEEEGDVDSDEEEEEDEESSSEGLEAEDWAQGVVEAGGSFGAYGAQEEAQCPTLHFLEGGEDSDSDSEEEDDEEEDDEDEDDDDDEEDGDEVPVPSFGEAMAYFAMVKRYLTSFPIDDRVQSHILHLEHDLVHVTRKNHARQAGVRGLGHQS
UniProt P06737: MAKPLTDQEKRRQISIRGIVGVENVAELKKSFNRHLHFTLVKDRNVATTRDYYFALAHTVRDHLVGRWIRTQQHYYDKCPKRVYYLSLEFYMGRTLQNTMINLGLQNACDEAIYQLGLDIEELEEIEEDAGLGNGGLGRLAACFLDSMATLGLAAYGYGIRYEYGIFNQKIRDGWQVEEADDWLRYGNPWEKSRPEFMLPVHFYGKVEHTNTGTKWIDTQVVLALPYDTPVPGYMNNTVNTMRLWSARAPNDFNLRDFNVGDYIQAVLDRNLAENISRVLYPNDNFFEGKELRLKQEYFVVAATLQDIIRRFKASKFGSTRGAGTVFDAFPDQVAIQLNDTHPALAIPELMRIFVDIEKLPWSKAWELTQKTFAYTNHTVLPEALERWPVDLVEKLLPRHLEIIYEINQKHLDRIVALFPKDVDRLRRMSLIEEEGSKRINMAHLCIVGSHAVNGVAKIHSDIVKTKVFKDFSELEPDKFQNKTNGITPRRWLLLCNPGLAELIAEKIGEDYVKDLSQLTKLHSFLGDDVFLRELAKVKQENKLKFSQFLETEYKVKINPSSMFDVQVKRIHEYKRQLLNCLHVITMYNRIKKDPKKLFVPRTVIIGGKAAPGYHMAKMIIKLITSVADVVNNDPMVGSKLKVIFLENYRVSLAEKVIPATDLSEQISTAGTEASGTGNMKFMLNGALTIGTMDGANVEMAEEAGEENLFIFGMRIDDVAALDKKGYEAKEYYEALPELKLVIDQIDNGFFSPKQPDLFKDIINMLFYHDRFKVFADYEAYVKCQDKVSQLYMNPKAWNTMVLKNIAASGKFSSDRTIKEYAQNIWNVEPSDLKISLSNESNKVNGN
UniProt P01033: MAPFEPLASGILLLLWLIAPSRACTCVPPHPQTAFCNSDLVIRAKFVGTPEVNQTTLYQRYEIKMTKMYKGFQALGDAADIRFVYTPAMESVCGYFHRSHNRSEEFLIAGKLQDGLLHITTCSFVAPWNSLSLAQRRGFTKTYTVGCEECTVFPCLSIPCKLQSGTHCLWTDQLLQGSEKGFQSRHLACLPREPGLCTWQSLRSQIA
UniProt P05387, whole entry: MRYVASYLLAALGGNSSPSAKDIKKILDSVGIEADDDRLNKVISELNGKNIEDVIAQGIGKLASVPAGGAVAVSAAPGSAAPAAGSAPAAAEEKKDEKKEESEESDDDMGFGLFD
UniProt P10768: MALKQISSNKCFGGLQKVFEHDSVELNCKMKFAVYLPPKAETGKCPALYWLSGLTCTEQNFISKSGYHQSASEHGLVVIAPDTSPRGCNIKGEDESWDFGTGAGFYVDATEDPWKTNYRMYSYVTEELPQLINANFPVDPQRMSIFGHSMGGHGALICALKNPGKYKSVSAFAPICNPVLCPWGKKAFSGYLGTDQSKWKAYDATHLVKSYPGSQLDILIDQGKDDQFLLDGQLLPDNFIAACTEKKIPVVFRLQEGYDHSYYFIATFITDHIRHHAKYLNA
UniProt P09382, whole entry: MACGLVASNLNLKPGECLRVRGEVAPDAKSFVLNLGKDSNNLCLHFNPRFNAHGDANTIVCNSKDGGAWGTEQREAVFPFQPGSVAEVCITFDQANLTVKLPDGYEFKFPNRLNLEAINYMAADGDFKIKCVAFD
UniProt P01137, whole entry: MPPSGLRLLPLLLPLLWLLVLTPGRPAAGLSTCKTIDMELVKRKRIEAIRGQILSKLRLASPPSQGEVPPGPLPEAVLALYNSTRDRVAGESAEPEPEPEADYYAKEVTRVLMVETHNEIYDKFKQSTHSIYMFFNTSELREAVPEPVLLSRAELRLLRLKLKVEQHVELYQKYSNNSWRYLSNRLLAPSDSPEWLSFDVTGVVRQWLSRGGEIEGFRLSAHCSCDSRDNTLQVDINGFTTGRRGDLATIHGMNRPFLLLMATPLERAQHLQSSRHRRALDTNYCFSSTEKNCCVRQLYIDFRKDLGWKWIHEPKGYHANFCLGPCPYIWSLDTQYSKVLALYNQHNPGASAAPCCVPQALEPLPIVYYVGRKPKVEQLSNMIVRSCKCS
UniProt P0DKB5: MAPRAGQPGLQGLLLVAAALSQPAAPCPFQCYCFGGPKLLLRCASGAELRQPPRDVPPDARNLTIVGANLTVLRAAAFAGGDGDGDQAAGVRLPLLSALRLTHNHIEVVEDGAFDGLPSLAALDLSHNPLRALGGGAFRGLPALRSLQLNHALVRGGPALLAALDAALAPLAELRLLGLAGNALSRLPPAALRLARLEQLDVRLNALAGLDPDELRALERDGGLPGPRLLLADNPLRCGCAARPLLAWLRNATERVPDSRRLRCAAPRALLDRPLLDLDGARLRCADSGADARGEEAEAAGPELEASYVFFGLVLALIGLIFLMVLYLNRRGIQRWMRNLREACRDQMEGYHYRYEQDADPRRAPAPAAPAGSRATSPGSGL

This is one part of the list. Small differences around the control level are noise.

Compound in this assay: CN[C@@H]1C[C@H]2O[C@@](C)([C@@H]1OC)n1c3ccccc3c3c4c(c5c6ccccc6n2c5c31)C(=O)NC4 [staurosporine]
The assay is described as follows: log2 fold change of tryptic peptide abundance, ligand vs vehicle (limited proteolysis) (log2 ratio); higher = more trypsin-susceptible (destabilized). The note with it: ligand concentration: 20 uM; sample: K562 cleared lysate; digestion: 4 min, 22 C (HT-PELSA RT4min, Orbitrap Astral).
Take “UniProt P09017 (peptide sequence: QQVLELEKEFHYNR, peptide start residue: 172)”: the log2 fold change was -0.467. For the target “AK1 (peptide sequence: LSEIMEK, peptide start residue: 57) (UniProt P00568)”, the log2 fold change was -0.452. As for “HBZ (peptide sequence: LSELHAYILR, peptide start residue: 84) (UniProt P02008)”, the figure is 0.155; as for “UniProt P0CJ79 (peptide sequence: SFQFNESGK, peptide start residue: 213)”, -0.164; as for “CAPN1 (peptide sequence: ESGCSFVLALMQK, peptide start residue: 414) (UniProt P07384)”, 0.594. Take “TYMS (peptide sequence: DFLDSLGFSTR, peptide start residue: 116) (UniProt P04818)”: the log2 fold change was -0.131.

With “CYBA (peptide sequence: QPPSNPPPRPPAEAR, peptide start residue: 150) (UniProt P13498)”, the log2 fold change worked out at 0.131. In the case of “HARS (peptide sequence: LKAQLGPDESK, peptide start residue: 41) (UniProt P12081)”, the log2 fold change was 0.189.

On to “EEF1AKMT4 (peptide sequence: EVEYWDQR, peptide start residue: 22) (UniProt P0DPD7)”, for which the log2 fold change was -0.113. Regarding “COL1A2 (peptide sequence: GPAGPSGPAGK, peptide start residue: 1054) (UniProt P08123)”, the log2 fold change was -0.147.

For the target “UniProt P0CW24 (peptide sequence: CLTAQQQSGER, peptide start residue: 245)”, the log2 fold change is 0.295.

“UniProt P00403 (peptide sequence: VVLPIEAPIR, peptide start residue: 142)”: the log2 fold change came to 0.105. For “TPM3 (peptide sequence: HIAEEADRK, peptide start residue: 117) (UniProt P06753)”, the log2 fold change was -0.138. As to “MYB (peptide sequence: CMIVHQGTILDNVK, peptide start residue: 374) (UniProt P10242)”, the log2 fold change was found to be 0.218.

Take “UniProt P09630 (peptide sequence: YQTLELEK, peptide start residue: 195)”: the log2 fold change is -0.142. With “UniProt P09629 (peptide sequence: DSDLAAESNFR, peptide start residue: 115)”, the log2 fold change amounted to 0.278. For the target “CENPB (peptide sequence: LAAQSLDTSGLR, peptide start residue: 299) (UniProt P07199)”, the log2 fold change was -0.187. With “RPSA (peptide sequence: FTPGTFTNQIQAAFR, peptide start residue: 103) (UniProt P08865)”, the log2 fold change is 0.199. Consider “PYGL (peptide sequence: HLHFTLVK, peptide start residue: 35) (UniProt P06737)”, for which the log2 fold change was determined as 0.273. Consider “TIMP1 (peptide sequence: GFQALGDAADIR, peptide start residue: 71) (UniProt P01033)”, for which the log2 fold change was found to be 0.266.

On to “GAPDH (peptide sequence: GKVKVGVNGFGR, peptide start residue: 2) (UniProt P04406)”, for which the log2 fold change came to 1.55. Turning to “RPLP2 (peptide sequence: ILDSVGIEADDDRLNK, peptide start residue: 26) (UniProt P05387)”, the log2 fold change is -0.0509. For “ESD (peptide sequence: AYDATHLVK, peptide start residue: 201) (UniProt P10768)”, the log2 fold change worked out at 0.0737.

On to “LGALS1 (peptide sequence: SFVLNLGKDSNNLCLHFNPR, peptide start residue: 30) (UniProt P09382)”, for which the log2 fold change was -0.169.

Consider “TGFB1 (peptide sequence: AQHLQSSR, peptide start residue: 268) (UniProt P01137)”, for which the log2 fold change came to 0.289.

In the case of “CTSL (peptide sequence: EKGYVTPVK, peptide start residue: 122) (UniProt P07711)”, the log2 fold change worked out at 0.38. For “UniProt P0DKB5 (peptide sequence: LEQLDVR, peptide start residue: 197)”, the log2 fold change was -0.0351. For the target “EPRS (peptide sequence: KDPSKNQGGGLSSSGAGEGQGPK, peptide start residue: 987) (UniProt P07814)”, the log2 fold change was -0.187. For “COL1A1 (peptide sequence: GSEGPQGVR, peptide start residue: 362) (UniProt P02452)”, the log2 fold change was -0.261.
